From paper PMC5713321
Results are given in words; binding and its absence hold for the method and conditions named. In cells and extracts the contact can be indirect. For some assays here: A result given as binding can be weak or reduced; the word gives no strength. Sequences can lack the tags named with a protein.

Columns and labels:
[1] = target: T1, WHY1-MYC-GFPc155c (Arabidopsis thaliana) (UniProt Q9M9S3); assay: split reporter; BiFC with GFPn173 and GFPc155 fusions under the 35S promoter, transiently co-expressed in onion epidermal cells; GFP fluorescence by microscopy
T1 sequence: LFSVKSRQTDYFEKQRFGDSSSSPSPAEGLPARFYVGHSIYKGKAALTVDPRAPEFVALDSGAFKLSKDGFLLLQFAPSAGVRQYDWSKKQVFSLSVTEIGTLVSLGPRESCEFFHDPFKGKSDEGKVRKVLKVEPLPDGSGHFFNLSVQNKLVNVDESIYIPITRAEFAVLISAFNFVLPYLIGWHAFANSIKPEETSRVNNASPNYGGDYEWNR

[2] = target: T2, WHY1-HA-GFPn173c (Arabidopsis thaliana) (UniProt Q9M9S3); assay: as above
T2 sequence: T1 sequence

[3] = target: T3, HA-tagged WHY1 in thylakoid membrane fractions (Arabidopsis thaliana) (UniProt Q9M9S3); assay: co-IP; solubilised thylakoid membrane fractions 1, 2 and 3 of a sucrose gradient as input; antibody against the HA tag, 4 °C, protein A beads, washed with 50 mM Tris-HCl, 0.1% nonidet P-40, pH 8.0; immunoblots with antibodies against LHCA1, LHCA2, LHCA3, LHCA4 and LHCB1
T3 sequence: T1 sequence

binding [2] | binding [3] | Substance | further results
– | – | LHCA1-HA-GFPn173c (Arabidopsis thaliana) | binding [1]: binds
binds | – | LHCA1-MYC-GFPc155c (Arabidopsis thaliana) | –
– | no binding | LHCA4 (endogenous, thylakoid membrane fractions) | –
no binding | – | LHCA4-GFPc155 (Arabidopsis thaliana) | –
– | no binding | photosystem II protein LHCB1 (endogenous, thylakoid membrane fractions) | –
